Measurements published in patent publication US9452225B2, “GLP-1 prodrugs” (Novo Nordisk A/S, priority 2012, dated 2016).
At least one structure is not confirmed: it was looked up by name or label, or the drawing left a doubt. Numbered stars: 1 amine (or outer) side, 2 acyl side, 3 side chain; on linkers, the order of the positions; unused ones are H or OH. Side chains are listed from the residue outwards. Peptide text beside a SMILES is read from it. * marks the point of attachment. Decanoyl(10-(4-HOOC-PhO)) = O=C(O)c1ccc(OCCCCCCCCCC(=O)*)cc1; γGlu = O=C(O)[C@H](CCC(=O)[*:2])N[*:1]; AEEA = NCCOCCOCC(=O)O

Chains of the proteins cited; added tags and fusions are not shown. Residues count along the entry.
UniProt P43220, 24-463: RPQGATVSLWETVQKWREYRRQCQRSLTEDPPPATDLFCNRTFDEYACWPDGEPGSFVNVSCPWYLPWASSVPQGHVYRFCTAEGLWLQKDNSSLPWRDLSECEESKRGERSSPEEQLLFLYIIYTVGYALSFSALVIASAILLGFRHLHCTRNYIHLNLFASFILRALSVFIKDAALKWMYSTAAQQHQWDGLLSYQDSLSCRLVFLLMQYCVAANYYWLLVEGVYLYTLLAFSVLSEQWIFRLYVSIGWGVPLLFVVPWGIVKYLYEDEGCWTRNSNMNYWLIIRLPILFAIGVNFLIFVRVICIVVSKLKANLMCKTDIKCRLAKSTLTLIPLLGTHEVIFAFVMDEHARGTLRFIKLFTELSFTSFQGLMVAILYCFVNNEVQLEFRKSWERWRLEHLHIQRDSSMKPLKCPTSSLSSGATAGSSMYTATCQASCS

Target: T1, human GLP-1 receptor (Homo sapiens, UniProt P43220)
T1 construct: expressed in transfected cells; host or cells: BHK cells, clone FCW467-12A (parent line BHKTS13), membranes
Assay: In vitro potency, CRE luciferase reporter gene assay in whole BHK cells
Format: cell-based
Details: read-out: In vitro potency (EC50/pM) 0% HSA
Protocol: The purpose of this example is to test the activity, or potency, of, for example, the GLP-1 parent drugs of the prodrugs of the invention. The in vitro potency is the measure of human GLP-1 receptor activation in a whole cell assay. This method is an alternative to the method of Example 8.
In vitro potency was determined by measuring the response of the human GLP-1 receptor in a reporter gene assay. The assay was performed in a stably transfected BHK cell line that expresses the human GLP-1 receptor and contains the DNA for the cAMP response element (CRE) coupled to a promoter and the gene for firefly luciferase (CRE luciferase). When the human GLP-1 receptor is activated it results in the production of cAMP, which in turn results in the luciferase protein being expressed. When assay incubation is completed the luciferase substrate (luciferin) is added and the enzyme converts luciferin to oxyluciferin to produce bioluminescence. The luminescence is measured as the readout for the assay.
In order to test the binding of the derivatives to albumin, the assay may if desired be performed in the absence of serum albumin as well as in the presence of a considerably higher concentration of serum albumin (1.0% final assay concentration). […]
3) The cells were counted and adjusted to 5×10^3 cells/50 μl (1×10^5 cells/ml) in Assay Medium. […]

CC[C@H](C)[C@H](NC(=O)[C@H](Cc1ccccc1)NC(=O)[C@H](CCC(=O)O)NC(=O)[C@H](CCCNC(=N)N)NC(=O)[C@@H](NC(=O)[C@H](C)NC(=O)[C@H](CCC(N)=O)NC(=O)[C@H](CCC(=O)O)NC(=O)[C@H](CCC(=O)O)NC(=O)[C@H](CC(C)C)NC(=O)[C@H](Cc1ccc(O)cc1)NC(=O)[C@H](CCCCNC(=O)COCCOCCNC(=O)COCCOCCNC(=O)CC[C@H](NC(=O)CCCCCCCCCOc1ccc(C(=O)O)cc1)C(=O)O)NC(=O)[C@H](CO)NC(=O)[C@@H](NC(=O)[C@H](CC(=O)O)NC(=O)[C@H](CO)NC(=O)[C@@H](NC(=O)[C@H](Cc1ccccc1)NC(=O)[C@@H](NC(=O)CNC(=O)[C@H](CCC(=O)O)NC(=O)[C@H](C)NC(=O)[C@@H](N)Cc1c[nH]cn1)[C@@H](C)O)[C@@H](C)O)C(C)C)C(C)C)C(=O)N[C@@H](C)C(=O)N[C@@H](CCCCNC(=O)COCCOCCNC(=O)COCCOCCNC(=O)CC[C@H](NC(=O)CCCCCCCCCOc1ccc(C(=O)O)cc1)C(=O)O)C(=O)N[C@@H](CC(C)C)C(=O)N[C@H](C(=O)N[C@@H](CCCNC(=N)N)C(=O)NCC(=O)N[C@@H](CCCNC(=N)N)C(=O)NCC(=O)O)C(C)C [reference compound] (H-HAEGTFTSDVSK([AEEA-AEEA-γGlu-Decanoyl(10-(4-HOOC-PhO))])YLEEQAVREFIAK([AEEA-AEEA-γGlu-Decanoyl(10-(4-HOOC-PhO))])LVRGRG-OH; C-terminus assumed)
EC50: 25 pM
